Results deposited as PubChem BioAssay AID1259308 (NCATS, 2017)

Aim: 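Genes whose loss raises luciferase production in HEK293 cells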 (primary screen)
Cells: human HEK293 embryonic kidney cells stably expressing firefly luciferase (HEK-CMV-Luc2-Hygro)
Knock-down reagent: single siRNA against human genes, 0.8 pmol siRNA per well
Duration: 72 h
Detection: 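Reporter luminescence and viable-cell signal on separate replicate plates, given as percent of non-targeting control and median/MAD z-scores, plus per-cell luciferase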
Reading the numbers: total luciferase, z-score: higher = more reporter protein produced
Call rule: 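An siRNA counts as active if its total luciferase robust z-score exceeds 3; genes with two or more such siRNAs out of three were retested with fresh siRNAs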
Meaning of the calls: active = raised luciferase; inactive = no rise
The deposit covers about 59,000 reagents; shown is an unselected part. About 1,510 of them (2.6%) count as active. 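Calls use total luciferase alone and ignore viability, so some active siRNAs may act by altering cell number.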 Unmarked entries are inactive. Reagents against one gene are numbered here. Further read-outs or replicates are left out here. No sequences are given here.

gene symbol | reagent | total luciferase, z-score
SF3A3 | 1 | 1.72
SF3A3 | 2 | 2.87
SF3A3 | 3 | 2.43
RPS3 | 1 | -2.5
RPS3 | 2 | -2.78
RPS3 | 3 | -3
HIVEP3 | 1 | 0.269
HIVEP3 | 2 | 0.16
HIVEP3 | 3 | 1.32
RBM5 | 1 | -0.0495
RBM5 | 2 | 3.66 (active)
RBM5 | 3 | -0.506
GNPTG | 1 | -0.605
GNPTG | 2 | -0.725
GNPTG | 3 | -0.201
C3P1 | 1 | 0.194
C3P1 | 2 | 2.19
C3P1 | 3 | 1.5
CARD11 | 1 | 0.462
CARD11 | 2 | 1.23
CARD11 | 3 | -1.19
PRDX5 | 1 | -1.17
PRDX5 | 2 | 0.334
PRDX5 | 3 | 0.0182
OR2G6 | 1 | -0.166
OR2G6 | 2 | 0.229
OR2G6 | 3 | -0.251
GNAI1 | 1 | 1.29
GNAI1 | 2 | 0.484
GNAI1 | 3 | 0.207
RARS2 | 1 | -0.829
RARS2 | 2 | 0.439
RARS2 | 3 | -1.03

Reagents listed above marked active (1):
gene symbol | reagent | total luciferase, z-score
RBM5 | 2 | 3.66 (active)

Continued:
gene symbol | reagent | total luciferase, z-score
GUCY2EP | 1 | 0.0218
GUCY2EP | 2 | 3.02 (active)
GUCY2EP | 3 | -0.929
ODF2L | 1 | 1.96
ODF2L | 2 | 1.78
ODF2L | 3 | 2.04
RBM22 | 1 | 4.12 (active)
RBM22 | 2 | 3.52 (active)
RBM22 | 3 | -0.062
ANKRD36B | 1 | 0.606
ANKRD36B | 2 | 0.618
ANKRD36B | 3 | 1.03
IFT25 | 1 | 0.158
IFT25 | 2 | -0.293
IFT25 | 3 | -2.18
DEPDC7 | 1 | -0.928
DEPDC7 | 2 | 0.103
DEPDC7 | 3 | -0.586
CXCL8 | 1 | -0.207
CXCL8 | 2 | 0.804
CXCL8 | 3 | 1.2
TOMM22 | 1 | -0.0202
TOMM22 | 2 | 0.292
TOMM22 | 3 | -0.0872
NMU | 1 | 1.01
NMU | 2 | 1.03
NMU | 3 | -1.02
PNKD | 1 | 0.232
PNKD | 2 | 0.528
PNKD | 3 | -0.833
SETMAR | 1 | -0.68
SETMAR | 2 | -2.09
SETMAR | 3 | 0.095
EWSR1 | 1 | -0.0524
EWSR1 | 2 | 0.418
EWSR1 | 3 | -1.87
SQLE | 1 | -0.868
SQLE | 2 | 0.656
SQLE | 3 | 0.731
C2CD5 | 1 | 1.14
C2CD5 | 2 | 0.0539
C2CD5 | 3 | -0.697
